Source: publication PMC9613683
Results are given in words; binding and its absence hold for the method and conditions named. Binding seen in cells or lysates may run through a third protein. Some entries that bind do so weakly or less than the wild type.

By UniProt entry, the sequences of proteins in these tests, tags left out. Where a name states a change or a piece, a line headed by the entry shows the natural chain unless it says otherwise. Chains listed by the source or under a name are the forms on record and can include a tag or linker. Residues count along the entry.
Coxsackievirus and adenovirus receptor (CAR) tagged with GFP (P78310, residues 20-365): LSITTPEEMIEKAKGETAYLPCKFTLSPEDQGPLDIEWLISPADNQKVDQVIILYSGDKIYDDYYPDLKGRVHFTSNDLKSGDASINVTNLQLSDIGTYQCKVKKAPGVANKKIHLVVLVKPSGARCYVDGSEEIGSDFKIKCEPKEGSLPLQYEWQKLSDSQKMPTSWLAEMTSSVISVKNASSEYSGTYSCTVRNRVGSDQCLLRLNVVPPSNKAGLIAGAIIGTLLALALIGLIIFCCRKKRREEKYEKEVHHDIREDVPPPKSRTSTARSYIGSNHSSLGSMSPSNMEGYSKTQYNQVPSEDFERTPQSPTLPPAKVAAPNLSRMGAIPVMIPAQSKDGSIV
T290/S293 phospho-dead mutant of CAR tagged with GFP (P78310, form named): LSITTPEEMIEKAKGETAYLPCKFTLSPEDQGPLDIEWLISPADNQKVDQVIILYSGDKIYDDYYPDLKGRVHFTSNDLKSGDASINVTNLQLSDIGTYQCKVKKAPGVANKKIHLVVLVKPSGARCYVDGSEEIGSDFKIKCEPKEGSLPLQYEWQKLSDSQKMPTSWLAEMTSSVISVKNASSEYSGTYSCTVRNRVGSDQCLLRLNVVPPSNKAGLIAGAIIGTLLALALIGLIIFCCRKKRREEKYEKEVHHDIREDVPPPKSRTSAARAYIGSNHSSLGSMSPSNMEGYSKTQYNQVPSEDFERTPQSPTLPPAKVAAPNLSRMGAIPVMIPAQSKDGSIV
UniProt Q03135: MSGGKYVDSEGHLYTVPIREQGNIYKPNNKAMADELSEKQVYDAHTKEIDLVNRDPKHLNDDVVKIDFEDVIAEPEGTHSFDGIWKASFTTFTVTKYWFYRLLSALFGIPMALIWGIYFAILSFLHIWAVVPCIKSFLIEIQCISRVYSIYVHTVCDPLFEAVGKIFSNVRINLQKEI

Legend:
[1] = molecular target: T290/S293 phospho-dead mutant of CAR tagged with GFP (UniProt P78310); assay: co-IP; GFP-trap immunoprecipitation as above from 16HBE cells treated with HDM for 1 h before lysis; blot for caveolin-1
[2] = molecular target: Coxsackievirus and adenovirus receptor (CAR) tagged with GFP (UniProt P78310); assay: co-IP; GFP-trap immunoprecipitation from lysates of 16HBE cells expressing GFP-tagged CAR, 2 h at 4 °C, 50 mM Tris pH 7.4, 150 mM NaCl, 1% NP40, 1% Triton X-100; blot for caveolin-1
[3] = molecular target: T290/S293 phospho-dead mutant of CAR tagged with GFP (UniProt P78310); assay: as above

binding [1]: binds
binding [2]: binds
binding [3]: binds
Substance: caveolin-1 (from UniProt Q03135 1-178)
